According to PMC4387661:
Results are given in words; binding and its absence hold for the method and conditions named. Binding seen in cells or lysates may run through a third protein.

Chains of the proteins cited; added tags and fusions are not shown.
UniProt O54918: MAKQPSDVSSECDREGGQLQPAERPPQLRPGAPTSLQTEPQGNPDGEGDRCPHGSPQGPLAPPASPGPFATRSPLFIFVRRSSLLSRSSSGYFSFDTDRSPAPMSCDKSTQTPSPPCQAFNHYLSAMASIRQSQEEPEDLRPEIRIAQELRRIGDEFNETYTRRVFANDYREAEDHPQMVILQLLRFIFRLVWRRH

Biological target: T1, activating transcription factor 2 (ATF2) (mouse (endogenous in B16F10)) (UniProt P16951)
T1 sequence: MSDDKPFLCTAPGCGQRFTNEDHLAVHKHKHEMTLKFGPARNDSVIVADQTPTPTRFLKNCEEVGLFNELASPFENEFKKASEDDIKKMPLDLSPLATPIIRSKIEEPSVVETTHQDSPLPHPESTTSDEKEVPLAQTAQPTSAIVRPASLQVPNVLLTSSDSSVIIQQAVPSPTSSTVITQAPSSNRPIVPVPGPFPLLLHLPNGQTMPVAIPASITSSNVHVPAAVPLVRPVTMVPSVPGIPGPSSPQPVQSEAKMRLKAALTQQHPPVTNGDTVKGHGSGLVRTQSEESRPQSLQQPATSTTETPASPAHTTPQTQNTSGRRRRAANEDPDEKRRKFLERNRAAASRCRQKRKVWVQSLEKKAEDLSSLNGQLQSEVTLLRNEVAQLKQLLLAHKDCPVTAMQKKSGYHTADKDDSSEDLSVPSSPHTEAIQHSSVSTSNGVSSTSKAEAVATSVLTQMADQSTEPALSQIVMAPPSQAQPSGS
Assay: co-IP; immunoprecipitation from B16F10 cell lysates prior to and after PTX treatment; which protein was precipitated is not told

In the case of Bim (from UniProt O54918 1-196), the binding is reported as “no binding”.
